Assay [1] has as its target Growth Factor Receptor‐Bound Protein 2 (GRB2) (human (endogenous in SH-SY5Y)) (UniProt P62993). In words: co-IP; SH-SY5Y lysate (RIPA buffer) immunoprecipitated with anti-GRB2 antibody and protein A-agarose, blotted for TRKA and EGFR; cells treated with Rg3 (5 µM), TDF (10 µM) or DMSO (0.1%) for 24 h.
Assay [2] has the same target. As to the kind of experiment: native gel or EMSA; Native PAGE (4%-12% gel, 4 °C) and immunoblotting of SH-SY5Y lysates; cells treated with Rg3 (5 µM), GW441756 (10 µM) or DMSO (0.1%) for 6 h.

Chains of the proteins cited; added tags and fusions are not shown. Residues count along the entry.
UniProt P62993: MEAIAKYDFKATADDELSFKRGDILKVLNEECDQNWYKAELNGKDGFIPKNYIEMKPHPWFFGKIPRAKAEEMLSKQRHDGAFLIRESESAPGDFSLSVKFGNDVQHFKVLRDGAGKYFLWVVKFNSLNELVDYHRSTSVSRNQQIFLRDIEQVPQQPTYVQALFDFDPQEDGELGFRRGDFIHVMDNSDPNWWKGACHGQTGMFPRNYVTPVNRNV
UniProt P04629, residues 33-796: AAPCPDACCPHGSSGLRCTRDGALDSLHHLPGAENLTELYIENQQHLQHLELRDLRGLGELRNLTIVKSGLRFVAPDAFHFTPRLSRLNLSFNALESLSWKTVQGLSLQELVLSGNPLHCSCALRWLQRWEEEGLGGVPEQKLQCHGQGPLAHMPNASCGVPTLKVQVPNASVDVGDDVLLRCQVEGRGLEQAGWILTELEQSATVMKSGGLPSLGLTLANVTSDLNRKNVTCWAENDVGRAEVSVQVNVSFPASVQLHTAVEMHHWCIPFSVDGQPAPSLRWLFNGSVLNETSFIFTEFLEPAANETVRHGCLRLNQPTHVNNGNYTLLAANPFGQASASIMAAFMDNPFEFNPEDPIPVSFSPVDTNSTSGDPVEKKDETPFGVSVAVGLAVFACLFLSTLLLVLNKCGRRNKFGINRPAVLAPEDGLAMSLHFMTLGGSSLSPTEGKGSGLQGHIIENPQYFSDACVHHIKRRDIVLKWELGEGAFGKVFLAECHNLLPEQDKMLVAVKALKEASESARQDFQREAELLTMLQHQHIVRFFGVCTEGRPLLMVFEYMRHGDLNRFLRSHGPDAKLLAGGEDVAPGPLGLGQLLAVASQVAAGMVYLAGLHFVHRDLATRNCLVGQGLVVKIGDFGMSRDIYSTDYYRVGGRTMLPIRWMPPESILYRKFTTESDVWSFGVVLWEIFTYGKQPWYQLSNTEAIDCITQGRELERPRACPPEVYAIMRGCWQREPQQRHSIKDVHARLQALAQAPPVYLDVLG

These are yes or no findings as the source states them, for the method shown. For some assays here: In cells and extracts the contact can be indirect. Some binding calls cover weakened binding; strength is not graded here.

Regarding “TRKA (Neurotrophic Tyrosine Kinase, Receptor, Type 1) (from UniProt P04629 33-796)”, the binding result in assay [1] and in assay [2] was “binds” each time.

The record behind these values is article PMC11497058, “Ginsenoside Rg3 Restores Mitochondrial Cardiolipin Homeostasis via GRB2 to Prevent Parkinson's Disease” (Advanced Science, 2024).
